Data as given in PubChem BioAssay AID1508597 (Cure First, 2020)

- Purpose: 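Survival screen with siRNA in ovarian cancer cells derived from patients, with or without rucaparib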 (primary screen)
- Cells: human ovarian carcinoma lines grown from tumours: OCI-P5x (papillary serous) and OCI-C5x (clear cell)
- Knock-down reagent: siRNA pool against human genes, 1.25 pmol siRNA per well
- Time to read-out: 72 h or 96 h, depending on the cell culture
- Challenge: rucaparib 20 µM (about IC30) or vehicle, present until read-out
- Read-out: 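Luminescent ATP-based viability assay read 72 or 96 h after transfection, depending on culture, given as normalised percent viability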
- Scale: viability, normalised: higher = more viable cells remaining
- Rule for the call: 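a well counts as a hit if its normalised viability is under 80 percent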
- Meaning of the calls: active = viability under 80%; inactive = viability 80% or more
The whole screen tested about 2,100 reagents; below is a random part of them. 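Calls flag viability under 80% in either arm, not effects specific to rucaparib; the reference for percent is not stated.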 Not given: the 100% reference.

Gene | rucaparib or vehicle | cell line | technical replicate | viability, normalised (%) | call
UCKL1 | Rucaparib | OCI-C5x (clear cell) | 1 | 57.1 | active
UCKL1 | Rucaparib | OCI-C5x (clear cell) | 2 | 54.5 | active
UCKL1 | Rucaparib | OCI-C5x (clear cell) | 3 | 39.9 | active
UCKL1 | Rucaparib | OCI-P5x (serous) | 1 | 51.8 | active
UCKL1 | Rucaparib | OCI-P5x (serous) | 2 | 59.7 | active
UCKL1 | Rucaparib | OCI-P5x (serous) | 3 | 42.3 | active
UCKL1 | Vehicle | OCI-C5x (clear cell) | 1 | 76 | active
UCKL1 | Vehicle | OCI-C5x (clear cell) | 2 | 52.8 | active
UCKL1 | Vehicle | OCI-C5x (clear cell) | 3 | 30.8 | active
UCKL1 | Vehicle | OCI-P5x (serous) | 1 | 56.8 | active
UCKL1 | Vehicle | OCI-P5x (serous) | 2 | 42.3 | active
UCKL1 | Vehicle | OCI-P5x (serous) | 3 | 50.5 | active
PMS2P3 | Rucaparib | OCI-C5x (clear cell) | 1 | 55.5 | active
PMS2P3 | Rucaparib | OCI-C5x (clear cell) | 2 | 56.6 | active
PMS2P3 | Rucaparib | OCI-C5x (clear cell) | 3 | 46.8 | active
PMS2P3 | Rucaparib | OCI-P5x (serous) | 1 | 40.5 | active
PMS2P3 | Rucaparib | OCI-P5x (serous) | 2 | 52.2 | active
PMS2P3 | Rucaparib | OCI-P5x (serous) | 3 | 71.7 | active
PMS2P3 | Vehicle | OCI-C5x (clear cell) | 1 | 41.6 | active
PMS2P3 | Vehicle | OCI-C5x (clear cell) | 2 | 43.9 | active
PMS2P3 | Vehicle | OCI-C5x (clear cell) | 3 | 46.9 | active
PMS2P3 | Vehicle | OCI-P5x (serous) | 1 | 78.4 | active
PMS2P3 | Vehicle | OCI-P5x (serous) | 2 | 67.8 | active
PMS2P3 | Vehicle | OCI-P5x (serous) | 3 | 73.8 | active
SMNDC1 | Rucaparib | OCI-C5x (clear cell) | 1 | 46.8 | active
SMNDC1 | Rucaparib | OCI-C5x (clear cell) | 2 | 59 | active
SMNDC1 | Rucaparib | OCI-C5x (clear cell) | 3 | 45.4 | active
SMNDC1 | Rucaparib | OCI-P5x (serous) | 1 | 61.9 | active
SMNDC1 | Rucaparib | OCI-P5x (serous) | 2 | 63.8 | active
SMNDC1 | Rucaparib | OCI-P5x (serous) | 3 | 55.1 | active
SMNDC1 | Vehicle | OCI-C5x (clear cell) | 1 | 48.5 | active
SMNDC1 | Vehicle | OCI-C5x (clear cell) | 2 | 50.9 | active
SMNDC1 | Vehicle | OCI-C5x (clear cell) | 3 | 46.5 | active
SMNDC1 | Vehicle | OCI-P5x (serous) | 1 | 50 | active
SMNDC1 | Vehicle | OCI-P5x (serous) | 2 | 57.3 | active
SMNDC1 | Vehicle | OCI-P5x (serous) | 3 | 66.4 | active

Targets listed so far whose gene name starts with P or p (12):
Gene | rucaparib or vehicle | cell line | technical replicate | viability, normalised (%) | call
PMS2P3 | Rucaparib | OCI-C5x (clear cell) | 1 | 55.5 | active
PMS2P3 | Rucaparib | OCI-C5x (clear cell) | 2 | 56.6 | active
PMS2P3 | Rucaparib | OCI-C5x (clear cell) | 3 | 46.8 | active
PMS2P3 | Rucaparib | OCI-P5x (serous) | 1 | 40.5 | active
PMS2P3 | Rucaparib | OCI-P5x (serous) | 2 | 52.2 | active
PMS2P3 | Rucaparib | OCI-P5x (serous) | 3 | 71.7 | active
PMS2P3 | Vehicle | OCI-C5x (clear cell) | 1 | 41.6 | active
PMS2P3 | Vehicle | OCI-C5x (clear cell) | 2 | 43.9 | active
PMS2P3 | Vehicle | OCI-C5x (clear cell) | 3 | 46.9 | active
PMS2P3 | Vehicle | OCI-P5x (serous) | 1 | 78.4 | active
PMS2P3 | Vehicle | OCI-P5x (serous) | 2 | 67.8 | active
PMS2P3 | Vehicle | OCI-P5x (serous) | 3 | 73.8 | active

Next entries follow:
Gene | rucaparib or vehicle | cell line | technical replicate | viability, normalised (%) | call
TEX14 | Rucaparib | OCI-C5x (clear cell) | 1 | 43.3 | active
TEX14 | Rucaparib | OCI-C5x (clear cell) | 2 | 50.9 | active
TEX14 | Rucaparib | OCI-C5x (clear cell) | 3 | 61.1 | active
TEX14 | Rucaparib | OCI-P5x (serous) | 1 | 96.6 | inactive
TEX14 | Rucaparib | OCI-P5x (serous) | 2 | 92.3 | inactive
TEX14 | Rucaparib | OCI-P5x (serous) | 3 | 86.7 | inactive
TEX14 | Vehicle | OCI-C5x (clear cell) | 1 | 59.9 | active
TEX14 | Vehicle | OCI-C5x (clear cell) | 2 | 46.3 | active
TEX14 | Vehicle | OCI-C5x (clear cell) | 3 | 56.9 | active
TEX14 | Vehicle | OCI-P5x (serous) | 1 | 87.7 | inactive
TEX14 | Vehicle | OCI-P5x (serous) | 2 | 68.1 | active
TEX14 | Vehicle | OCI-P5x (serous) | 3 | 76 | active
CDT1 | Rucaparib | OCI-C5x (clear cell) | 1 | 49.2 | active
CDT1 | Rucaparib | OCI-C5x (clear cell) | 2 | 41.2 | active
CDT1 | Rucaparib | OCI-C5x (clear cell) | 3 | 50.3 | active
CDT1 | Rucaparib | OCI-P5x (serous) | 1 | 80.4 | inactive
CDT1 | Rucaparib | OCI-P5x (serous) | 2 | 83.9 | inactive
CDT1 | Rucaparib | OCI-P5x (serous) | 3 | 65.6 | active
CDT1 | Vehicle | OCI-C5x (clear cell) | 1 | 34.7 | active
CDT1 | Vehicle | OCI-C5x (clear cell) | 2 | 49.5 | active
CDT1 | Vehicle | OCI-C5x (clear cell) | 3 | 46.5 | active
CDT1 | Vehicle | OCI-P5x (serous) | 1 | 66.6 | active
CDT1 | Vehicle | OCI-P5x (serous) | 2 | 61.4 | active
CDT1 | Vehicle | OCI-P5x (serous) | 3 | 84.1 | inactive
